The exact form of at least one protein or probe is not confirmed. For some assays here: At least one result comes from cells or an extract, where the contact may be indirect. For some assays here: No signal at the amounts used counts as a negative.
Tests used:
[1] = target: EpCAM (native, on the surface of human cancer cell lines T47D, MCF7, MDA-MB-231, HT29) (Homo sapiens) (UniProt P16422); assay: flow cytometry; conditions: protein on the cell surface
[2] = target: EpCAM (native, on the surface of human cancer cell lines T47D, MCF7, MDA-MB-231, HT29) (Homo sapiens) (UniProt P16422); assay: binding assay; conditions: protein on the cell surface
Dicer (recombinant) = Dicer (recombinant) (UniProt Q9UPY3); assay: enzyme reaction in vitro; conditions: 2'-F pyrimidines in long strand; chimera cleaved by recombinant Dicer to 21-mer siRNA; purified recombinant protein; label: 5'-DY647 on short strand; variant of Aptamer 23 (Ep23)

Amino acid sequences for entries named in this document (tags omitted). A change or cut given only in a name is not applied to a line headed by its entry. Residues count along the entry.
UniProt P16422, 24-314, stated change not applied: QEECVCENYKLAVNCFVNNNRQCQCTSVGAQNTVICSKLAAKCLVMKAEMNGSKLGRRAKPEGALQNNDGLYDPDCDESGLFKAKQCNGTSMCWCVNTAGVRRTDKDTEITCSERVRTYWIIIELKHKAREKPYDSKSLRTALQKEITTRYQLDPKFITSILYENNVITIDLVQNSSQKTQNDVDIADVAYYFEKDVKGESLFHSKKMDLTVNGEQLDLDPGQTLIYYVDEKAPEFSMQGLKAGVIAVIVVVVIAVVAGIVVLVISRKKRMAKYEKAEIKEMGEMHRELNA
UniProt Q9UPY3: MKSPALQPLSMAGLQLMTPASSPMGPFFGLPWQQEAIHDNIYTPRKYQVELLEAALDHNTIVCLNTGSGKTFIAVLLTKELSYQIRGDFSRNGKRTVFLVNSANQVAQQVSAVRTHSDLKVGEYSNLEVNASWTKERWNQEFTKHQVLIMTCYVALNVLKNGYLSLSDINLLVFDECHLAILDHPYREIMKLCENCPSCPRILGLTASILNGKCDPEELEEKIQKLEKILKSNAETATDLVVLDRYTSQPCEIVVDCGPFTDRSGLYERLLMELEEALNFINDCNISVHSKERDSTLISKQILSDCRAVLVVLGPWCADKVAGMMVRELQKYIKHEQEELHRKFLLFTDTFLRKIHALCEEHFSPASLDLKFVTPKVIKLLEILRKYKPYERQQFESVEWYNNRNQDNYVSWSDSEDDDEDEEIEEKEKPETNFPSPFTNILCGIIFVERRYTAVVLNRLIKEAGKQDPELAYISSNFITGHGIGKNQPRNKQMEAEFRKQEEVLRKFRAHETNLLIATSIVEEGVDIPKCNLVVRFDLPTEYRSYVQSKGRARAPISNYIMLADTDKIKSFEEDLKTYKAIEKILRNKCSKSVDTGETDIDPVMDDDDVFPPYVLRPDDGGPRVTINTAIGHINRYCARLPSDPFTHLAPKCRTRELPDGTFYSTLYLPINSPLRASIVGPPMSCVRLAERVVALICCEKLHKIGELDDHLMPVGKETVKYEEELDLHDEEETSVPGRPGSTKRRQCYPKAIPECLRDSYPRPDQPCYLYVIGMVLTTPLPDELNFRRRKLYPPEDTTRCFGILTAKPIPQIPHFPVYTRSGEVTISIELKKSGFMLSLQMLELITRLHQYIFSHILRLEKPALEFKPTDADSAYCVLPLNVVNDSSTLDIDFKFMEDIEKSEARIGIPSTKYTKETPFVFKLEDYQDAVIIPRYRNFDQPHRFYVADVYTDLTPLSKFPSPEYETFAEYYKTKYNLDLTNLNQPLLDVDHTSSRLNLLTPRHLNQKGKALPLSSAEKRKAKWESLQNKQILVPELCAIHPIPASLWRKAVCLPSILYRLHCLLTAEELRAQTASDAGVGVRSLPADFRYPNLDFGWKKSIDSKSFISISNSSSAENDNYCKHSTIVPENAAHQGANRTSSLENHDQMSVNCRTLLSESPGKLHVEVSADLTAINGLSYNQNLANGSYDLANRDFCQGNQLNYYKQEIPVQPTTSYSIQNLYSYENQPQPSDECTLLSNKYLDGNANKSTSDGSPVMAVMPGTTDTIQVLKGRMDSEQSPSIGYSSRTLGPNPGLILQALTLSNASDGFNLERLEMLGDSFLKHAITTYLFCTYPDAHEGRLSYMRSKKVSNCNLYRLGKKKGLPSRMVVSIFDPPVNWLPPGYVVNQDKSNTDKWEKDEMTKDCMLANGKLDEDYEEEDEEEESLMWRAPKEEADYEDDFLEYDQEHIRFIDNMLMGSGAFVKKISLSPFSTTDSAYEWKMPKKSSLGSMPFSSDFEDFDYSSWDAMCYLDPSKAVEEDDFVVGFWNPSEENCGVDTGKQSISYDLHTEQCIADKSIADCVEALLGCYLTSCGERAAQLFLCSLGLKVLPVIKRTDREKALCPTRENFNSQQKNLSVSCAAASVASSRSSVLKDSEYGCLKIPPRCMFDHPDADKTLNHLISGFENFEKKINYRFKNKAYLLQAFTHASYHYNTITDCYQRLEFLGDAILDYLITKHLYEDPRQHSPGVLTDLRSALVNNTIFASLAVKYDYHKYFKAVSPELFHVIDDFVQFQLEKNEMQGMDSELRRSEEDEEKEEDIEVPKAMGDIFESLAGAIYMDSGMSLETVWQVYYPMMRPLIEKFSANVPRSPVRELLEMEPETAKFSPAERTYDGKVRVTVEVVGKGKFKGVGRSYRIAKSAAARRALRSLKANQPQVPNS

Sequence: GCGACUGGUUACCCGGUCGT [control aptamer]
- Kd ([1]; 2'-OMe at positions as printed (mGCmGACUmGmGUUmACCCmGmGUCmGdT), 3' dT, HT29 cells, label: 5'-DY647, variant of DT3 (EpDT3)): 837 nM
- Kd ([1]; 2'-OMe at positions as printed (mGCmGACUmGmGUUmACCCmGmGUCmGdT), 3' dT, MCF7 cells, label: 5'-DY647, variant of DT3 (EpDT3)): > 1000 nM
- Kd ([1]; 2'-OMe at positions as printed (mGCmGACUmGmGUUmACCCmGmGUCmGdT), 3' dT, MDA-MB-231 cells, label: 5'-DY647, variant of DT3 (EpDT3)): > 1000 nM
- Kd ([1]; 2'-OMe at positions as printed (mGCmGACUmGmGUUmACCCmGmGUCmGdT), 3' dT, T47D cells, U118MG also >1000 nM, label: 5'-DY647, variant of DT3 (EpDT3)): > 1000 nM
- binding result ([2]; 2'-OMe at positions as printed (mGCmGACUmGmGUUmACCCmGmGUCmGdT), 3' dT, no staining of any xenograft section, label: 5'-DY647, variant of DT3 (EpDT3)): no binding

Sequence: GCGACUGGUUACCCGGUCG [DT3 (EpDT3)]
- Kd ([1]; 2'-F pyrimidines, 3'-inverted dT, HT29 cells, EpCAM-negative U118MG >1000 nM, label: 5'-DY647 (or 3'-FITC)): 158 nM
- Kd ([1]; 2'-F pyrimidines, 3'-inverted dT, MCF7 cells, EpCAM-negative U118MG >1000 nM, label: 5'-DY647 (or 3'-FITC)): 50 nM
- Kd ([1]; 2'-F pyrimidines, 3'-inverted dT, MDA-MB-231 cells, EpCAM-negative U118MG >1000 nM, label: 5'-DY647 (or 3'-FITC)): 98.9 nM
- Kd ([1]; 2'-F pyrimidines, 3'-inverted dT, T47D cells, DPBS, MgCl2, tRNA, Scatchard, EpCAM-negative U118MG >1000 nM, label: 5'-DY647 (or 3'-FITC)): 74.2 nM
- binding result ([2]; 2'-F pyrimidines, 3'-inverted dT, staining of paraffin xenograft sections, 100 nM, 37 C: T47D ++, MCF7 +, MDA-MB-231 +, HT-29 -, U118MG -, label: 5'-DY647 (or 3'-FITC)): binds

Sequence: ACGUAUCCCUUUUCGCGUAAAAUGUAGAGAUGCGGUGGUCCUU
- activity on this sequence (Dicer (recombinant)): active
- binding result ([2]; 2'-F pyrimidines in long strand, confocal microscopy, internalised by EpCAM-positive HT-29 cells, not by EpCAM-negative HEK-293T, label: 5'-DY647 on short strand, variant of Aptamer 23 (Ep23)): binds

Sequence: ACGUAUCCCUUUUCGCGUA [Aptamer 23 (Ep23)]
- Kd ([1]; 2'-F pyrimidines, HT29 cells, EpCAM-negative U118MG >1000 nM, label: 5'-TYE665 or 5'-DY647): 37 nM
- Kd ([1]; 2'-F pyrimidines, MCF7 cells, EpCAM-negative U118MG >1000 nM, label: 5'-TYE665 or 5'-DY647): 63.7 nM
- Kd ([1]; 2'-F pyrimidines, MDA-MB-231 cells, EpCAM-negative U118MG >1000 nM, label: 5'-TYE665 or 5'-DY647): 86.7 nM
- Kd ([1]; 2'-F pyrimidines, T47D cells, EpCAM-negative U118MG >1000 nM, label: 5'-TYE665 or 5'-DY647): 41.2 nM
- binding result ([2]; 2'-F pyrimidines, staining of paraffin xenograft sections, 100 nM, 37 C: T47D +++, MCF7 ++, MDA-MB-231 +, HT-29 +++, U118MG -, label: 5'-TYE665 or 5'-DY647): binds

Source: patent publication US20150197755
